Residue numbers refer to the chain shown, from its start. No constants are given. Whether binding was seen depends on the method and setting. Binding can be weak; no strength is given.
Legend:
[1] = molecular target: human CD47 on the cell surface (human) (UniProt Q08722); test: flow cytometry (short legend of FIG. 5)
[2] = molecular target: human CD47 on the cell surface (human) (UniProt Q08722); test: SIRPα competition FACS, cells carrying hCD47, competitor biotinylated SIRPα-d1-mFc (100 nM by the legend paragraph 154), streptavidin-FITC
[3] = molecular target: human CD47 on the cell surface (human) (UniProt Q08722); test: FACS on Raji-WT and Raji-GPC3H cells, FITC anti-human IgG
[4] = molecular target: human CD47 on the cell surface (human) (UniProt Q08722); test: FACS on 293T cells, full-length IgG1, FITC anti-hFc
[5] = molecular target: human CD47 on the cell surface (human) (UniProt Q08722); test: blocking FACS, 10 µg/mL antibody, blocked ligand 50 nM biotinylated SIRPα-mFc, streptavidin-FITC
[6] = molecular target: human CD47 on the cell surface (human) (UniProt Q08722); test: FACS, cells carrying hCD47, full-length IgG1, FITC anti-human Fc
[7] = molecular target: human CD47 on the cell surface (human) (UniProt Q08722); test: flow cytometry on Raji and HEK-293 cells, FITC anti-human Fc (FIG. 5)
[8] = molecular target: human CD47 on the cell surface (human) (UniProt Q08722); test: FACS, 1:1 mix of Raji-WT (dye-labelled) and Raji-GPC3H cells, 0.2 µg/mL antibody
[9] = molecular target: human CD47 on the cell surface (human) (UniProt Q08722); test: flow cytometry on a 1:1 mix of labelled Raji and Raji-GPC3^H cells (FIG. 12C)
[10] = molecular target: human CD47 on the cell surface (human) (UniProt Q08722); test: FACS on Raji cells, full-length IgG1, 5-fold series from 200 nM, FITC anti-hFc
[11] = molecular target: human CD47 on the cell surface (human) (UniProt Q08722); test: flow cytometry on cells carrying hCD47 (FIG. 4A)
[12] = molecular target: human CD47 on the cell surface (human) (UniProt Q08722); test: flow cytometry on Raji and 293T cells, full length IgG1 (FIG. 5 legend)
[13] = molecular target: human CD47 on the cell surface (human) (UniProt Q08722); test: FACS on Raji-WT and Raji-GPC3H cells, FITC secondary antibody
[14] = molecular target: human CD47 on the cell surface (human) (UniProt Q08722); test: flow cytometry on Raji and HEK-293 cells (FIG. 5)

The chains behind the UniProt entries cited, without tags or fusion partners. Where a name states a change or a piece, a line headed by the entry shows the natural chain unless it says otherwise.
UniProt Q08722: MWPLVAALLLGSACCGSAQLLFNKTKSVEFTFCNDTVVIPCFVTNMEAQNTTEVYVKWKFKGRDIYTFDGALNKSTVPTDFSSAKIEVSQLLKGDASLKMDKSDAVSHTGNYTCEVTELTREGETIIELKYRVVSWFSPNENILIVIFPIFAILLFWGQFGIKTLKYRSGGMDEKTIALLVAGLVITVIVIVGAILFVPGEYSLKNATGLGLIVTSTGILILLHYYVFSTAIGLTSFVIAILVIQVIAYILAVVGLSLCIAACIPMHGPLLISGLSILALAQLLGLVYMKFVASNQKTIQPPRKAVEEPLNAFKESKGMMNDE

Measured: binding

B1: BC18 full-length human IgG1 (antibody, V domains shown)
VH: QVQLQQSGPGLVKPSETLSLTCTVSGDSINYHYWSWIRQPPGKGLEWIGYIYYSGSTTYNPSLKSRVTMSVDPSKNHFSLKLTSVTAADTALYFCARQRGAYDYWGQGTQVTVSS
VL: DIQLTQSPSSVSASVGDRVTIACRASQDIGSRLVWYQQRPGKAPKLLIYAASSLQSGVPSRFSGSGSGTDFTLTISSLQPEDFATYYCQQSYSTPYSFGQGTKLEIK
notes: also called anti-CD47 mAb; parental anti-CD47 mAb
binds: all assays above

B2: BC7 full-length human IgG1 (antibody, V domains shown)
VH: B1 VH with Q110L
VL: DIVMTQSPSSVSASVGDRVTITCRASQGIGSRLAWYQQKPGKAPQLLIYAASSLQSGVPSRFSGSGSGTEFTLTISSLQPDDFATYYCQQYNSFSPITFGQGTRLEIK
binds: [1] | [4] | [7] | [10] | [12] | [14]
